For six molecules, binding results are on record in article PMC6377664.

Amino acid sequences for entries named in this document (tags omitted). Residues count along the entry.
UniProt P49789: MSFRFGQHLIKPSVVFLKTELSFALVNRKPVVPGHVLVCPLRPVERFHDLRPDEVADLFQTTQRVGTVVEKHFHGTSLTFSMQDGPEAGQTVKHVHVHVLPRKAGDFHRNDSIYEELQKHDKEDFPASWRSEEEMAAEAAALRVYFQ
UniProt P10809, residues 27-573: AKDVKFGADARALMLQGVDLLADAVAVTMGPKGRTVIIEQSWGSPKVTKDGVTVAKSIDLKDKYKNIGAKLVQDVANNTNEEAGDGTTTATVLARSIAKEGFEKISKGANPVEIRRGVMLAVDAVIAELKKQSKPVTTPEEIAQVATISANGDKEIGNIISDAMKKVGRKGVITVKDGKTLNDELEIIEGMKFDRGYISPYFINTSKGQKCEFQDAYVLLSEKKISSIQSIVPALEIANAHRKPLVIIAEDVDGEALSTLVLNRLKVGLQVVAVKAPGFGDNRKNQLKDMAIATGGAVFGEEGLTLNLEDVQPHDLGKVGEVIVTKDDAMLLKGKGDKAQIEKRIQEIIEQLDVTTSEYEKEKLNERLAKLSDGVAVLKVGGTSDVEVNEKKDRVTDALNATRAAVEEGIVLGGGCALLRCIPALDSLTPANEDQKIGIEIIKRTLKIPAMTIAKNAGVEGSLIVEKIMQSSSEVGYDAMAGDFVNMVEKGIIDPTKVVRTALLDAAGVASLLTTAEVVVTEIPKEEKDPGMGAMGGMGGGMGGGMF
UniProt P61604: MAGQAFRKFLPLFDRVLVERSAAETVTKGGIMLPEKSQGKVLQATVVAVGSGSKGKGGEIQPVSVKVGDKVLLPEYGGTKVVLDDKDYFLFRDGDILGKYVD

Results are given in words; binding and its absence hold for the method and conditions named. In cells and extracts the contact can be indirect. Some entries that bind do so weakly or less than the wild type. For some of these results: Sequences can lack the tags named with a protein.

In test [1] the target is Fhit, induced in H1299D1 cells (human) (UniProt P49789). Description: co-IP; lysates (1 mg total protein) of DSP cross-linked H1299D1 cells (PonA induced) or HCT116 cells; IP with anti-Fhit antiserum on protein A/G resin overnight at 4 °C, TBST washes; blots for HSP60, Fhit, HSP10.
Another test addresses GST-Fhit (human) (UniProt P49789). Nature of the test: pull-down; 150 ug GST or GST-Fhit bound to glutathione agarose; lysate of H1299D1 cells transfected with HA-FDXR added, 4 °C overnight; washed five times in 1:1 TBS/RIPA; blots with antisera against HA, HSP60 and Fhit; only the target purified.
For test [2], the target named is Fhit, endogenous in HCT116 (human (endogenous in HCT116)) (UniProt P49789). Nature of the test: co-IP; lysates (1 mg total protein) of DSP cross-linked H1299D1 cells (PonA induced) or HCT116 cells; IP with anti-Fhit antiserum on protein A/G resin overnight at 4 °C, TBST washes; blots for HSP60, Fhit, HSP10.
For test [3] the target is unchanged. Description: proximity ligation; Duolink in situ PLA in HCT116 cells fixed with 4% paraformaldehyde and permeabilised with 0.5% Triton X-100; rabbit anti-Fhit and mouse anti-Fdxr; single-antibody controls.

Regarding “HSP60, endogenous in H1299D1 (from UniProt P10809-1 27-573)”, the binding result (in test [1]; with GST-Fhit (human)) was “binds” in each case. Regarding “HSP10, endogenous in H1299D1 (from UniProt P61604 1-102)”, the binding result in test [1] is recorded as “binds”.

As for “HSP10, endogenous in HCT116 (from UniProt P61604 1-102)”, in test [2], the binding entry was “binds”.

As to “HSP60, endogenous in HCT116 (from UniProt P10809-1 27-573)”, the binding entry in test [2] is “binds”.

B1: Ferredoxin reductase (Fdxr), endogenous in HCT116 (protein, UniProt P22570 33-491)
chain: STQEKTPQICVVGSGPAGFYTAQHLLKHPQAHVDIYEKQPVPFGLVRFGVAPDHPEVKNVINTFTQTAHSGRCAFWGNVEVGRDVTVPELREAYHAVVLSYGAEDHRALEIPGEELPGVCSARAFVGWYNGLPENQELEPDLSCDTAVILGQGNVALDVARILLTPPEHLERTDITKAALGVLRQSRVKTVWLVGRRGPLQVAFTIKELREMIQLPGARPILDPVDFLGLQDKIKEVPRPRKRLTELLLRTATEKPGPAEAARQASASRAWGLRFFRSPQQVLPSPDGRRAAGVRLAVTRLEGVDEATRAVPTGDMEDLPCGLVLSSIGYKSRPVDPSVPFDSKLGVIPNVEGRVMDVPGLYCSGWVKRGPTGVIATTMTDSFLTGQMLLQDLKAGLLPSGPRPGYAAIQALLSSRGVRPVSFSDWEKLDAEEVARGQGTGKPREKLVDPQEMLRLLGH
In the case of B1, the binding result in test [3] is given as “binds”.

B2: HA-FDXR (protein, UniProt P22570 33-491)
chain: B1 chain
For B2, in the test with GST-Fhit (human), the binding result is “binds”.
